# Reference: PubChem BioAssay AID445 (National Center for Advancing Translational Sciences (NCATS), 2006)
# This is one part of the list. Further columns of the screen follow, without active or inactive calls. Most of these compounds were active or inconclusive in the main read-out, so they are no random draw. Potencies come from curve fits of mixed quality, noted in brackets.
# Assay: IkB Signaling
# Settings: ABC-DLBCL IkBa-CBG/CBR dual luciferase ratio (green luciferase fused to IkBa over red control in OCI-Ly3 lymphoma cells), 4 h
# Procedure, shortened: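 Luminescence ratio of IκBα-fused green versus native red beetle luciferase in OCI-Ly3 cells, 4 h post-doxycycline with compound; red signal alone, scaled from basal (0%) to zero light (-100%), flagged nonspecific or cytotoxic effects.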
# [1] = measured here: control luc red channel unless noted
# [2] = measured here: IkB-luc green channel
# [3] = measured here: control luc red channel
smiles,measurement,setting,value
CCCOc1cccc(NC(=O)c2cc(C)oc2C)c1,AC50,[1],"25.1 µM [falling, partial curve]"
CCn1cc(CNC(=O)c2cc(-c3ccc(C)c(C)c3)nc3ccccc23)c(C)n1,AC50,[1],"25.1 µM [falling, single point]"
COc1ccc(C(=O)Nc2cc(OC)ccc2OC)cc1,AC50,[1],"31.6 µM [falling, single point]"
COCc1cc(=O)n2c(-c3ccccc3OC)n[nH]c2n1,AC50,[1],"12.6 µM [falling, partial curve]"
CCOc1ccccc1CNS(=O)(=O)c1ccc(-c2coc(C)n2)cc1,AC50,[1],"25.1 µM [falling, partial curve, poor fit]"
Cc1ccc(NC(=O)c2ccc(NC(=O)N3CCSc4nc(C)cc(C)c43)cc2)c(Cl)c1,AC50,[1],"31.6 µM [rising, partial curve]"
O=C(Nc1cccc(Oc2ccc3c(c2)C(=O)NC3=O)c1)c1ccco1,AC50,[1],"12.6 µM [falling, partial curve]"
COCCN1C(=O)c2[nH]nc(-c3ccccc3O)c2C1c1ccc(Cl)c(Cl)c1 (centres undefined),AC50,[1],"25.1 µM [falling, single point]"
COc1ccc(CCNC(=O)c2ccc3c(c2)N(Cc2ccccc2F)C(=O)c2ccccc2S3(=O)=O)cc1OC,AC50,[1],"0.501 µM [rising, full curve]"
Cc1ccc(CN(Cc2ccco2)C(=O)COc2cc(C)c(Cl)c(C)c2)cc1,AC50,[1],"12.6 µM [falling, partial curve]"
Cc1cc(C(=O)CNCc2ccco2)c(C)n1-c1ccc(F)cc1,AC50,[1],"12.6 µM [falling, partial curve]"
CCN(CC)c1cc(C)c2cc(NC(=O)c3ccccc3OC)ccc2n1,AC50,[1],"31.6 µM [falling, single point]"
O=C(Nc1nc(-c2cccs2)cs1)c1ccc(S(=O)(=O)N2CCCCC2)cc1,AC50,[1],"5.01 µM [falling, partial curve]"
CSc1ccccc1NC(=O)CSc1nnnn1-c1ccccc1SC,AC50,[1],"7.94 µM [falling, partial curve]"
O=C(Cn1ncc2c(=O)oc3ccccc3c21)NC1CC1,AC50,[1],"12.6 µM [falling, partial curve]"
CCn1c(=O)c2sccc2n2c(CCCC(=O)N3CCN(c4cc(Cl)ccc4C)CC3)nnc12,AC50,[1],"20 µM [falling, single point]"
O=C(CSc1nc(-c2ccc(F)cc2)[nH]c1-c1ccccc1)NCC1CCCO1 (centres undefined),AC50,[1],"12.6 µM [falling, partial curve]"
N#CC1=C(N)SC(N)=C(C#N)C1Cc1ccccc1,AC50,[1],"3.98 µM [falling, full curve, poor fit]"
COc1ccccc1N1CCN(c2ncccc2-c2nc(-c3ccc(Cl)cc3)no2)CC1,AC50,[1],"3.16 µM [falling, single point]"
CC1CCN(C(=O)CSc2nc(-c3ccccc3)no2)CC1,AC50,[1],"6.31 µM [falling, partial curve]"
COc1cc(C(=O)N2CCC(c3nc4ccccc4o3)CC2)cc(OC)c1OC,AC50,[1],"20 µM [falling, partial curve, poor fit]"
Cc1c(NS(=O)(=O)c2ccccc2)cc(C(C)C)c(O)c1S(=O)(=O)c1ccc(Cl)cc1,AC50,[1],"15.8 µM [falling, partial curve]"
CCOc1ccc(C(=O)c2cn(Cc3ccccc3OC)c3ccc(F)cc3c2=O)cc1,AC50,[1],"39.8 µM [falling, single point]"
CC(=O)Nc1ccc(NC(=O)CSc2nc3ccccc3nc2N2CCOCC2)cc1,AC50,[1],"25.1 µM [falling, single point]"
Oc1c(C(c2ccccc2Cl)N2CCCC2)sc2nc(-c3ccco3)nn12 (centres undefined),AC50,[1],"3.16 µM [rising, partial curve]"
COc1ccc(C(c2nnnn2C2CCCC2)N2CCc3ccccc3C2)cc1OC (centres undefined),AC50,[1],"31.6 µM [falling, partial curve]"
Oc1c(-c2cc(-c3ccco3)[nH]n2)ccc2ccccc12,AC50,[1],"12.6 µM [falling, partial curve]"
COCCn1c(SCc2csc(-c3ccccc3)n2)nc2ccccc21,AC50,[1],"31.6 µM [falling, partial curve]"
Cc1cccc(N2CCCn3c2nc2c3c(=O)n(CC(=O)OCc3ccccc3)c(=O)n2C)c1,AC50,[1],"6.31 µM [falling, partial curve]"
COc1ccc(CCNc2ncnc3c2cnn3-c2ccc(C)cc2)cc1,AC50,[1],"12.6 µM [falling, partial curve]"
OC(COc1ccc(Cl)c2ccccc12)CN1CCN(c2ccccn2)CC1 (centres undefined),AC50,[1],"10 µM [falling, partial curve]"
CN1C(=O)c2ccccc2Sc2ccc(NC(=O)COc3ccc(F)cc3)cc21,AC50,[1],"25.1 µM [falling, partial curve]"
COC(=O)c1ccc(OCC2c3cc(OC)c(OC)cc3CCN2C(=O)c2cccc(C)c2)cc1 (centres undefined),AC50,[1],"39.8 µM [falling, single point]"
COc1cccc(N2CCN(C(=O)CN3CCSc4ccc(S(=O)(=O)N(C)C)cc43)CC2)c1,AC50,[1],"10 µM [falling, partial curve, poor fit]"
CC(C)CCNC(=O)NC(=O)CSc1nnc(COc2ccccc2Cl)o1,AC50,[1],"39.8 µM [falling, single point]"
COc1cccc(CNC(=O)Cn2c(=O)n3nc(-c4cccc(C)c4)nc3c3ccccc32)c1,AC50,[1],"15.8 µM [rising, partial curve]"
O=C(Cn1nc(Cc2cccnc2)c2ccccc2c1=O)N1CCN(c2ccc(F)cc2)CC1,AC50,[1],"2 µM [falling, partial curve, poor fit]"
COc1ccc(Nc2ncnc3onc(C)c23)cc1Cl,AC50,[1],"39.8 µM [falling, single point]"
CCCSCCCNC(=O)C1CCCN(C(=O)c2cnn(-c3ccccc3)c2-n2cccc2)C1 (centres undefined),AC50,[1],"20 µM [falling, single point]"
Cc1ccc(CCNC(=O)c2ccc3c(c2)N(Cc2cc(C)ccc2C)C(=O)c2ccccc2S3=O)cc1 (centres undefined),AC50,[1],"1.26 µM [falling, full curve]"
Cc1cc(C)cc(NS(=O)(=O)c2ccc(-c3cc(C)no3)cc2)c1,AC50,[1],"15.8 µM [falling, partial curve]"
CCOC(=O)c1cccc(NS(=O)(=O)c2cc(Br)cc3c2N(C(=O)C2CC2)CC3)c1,AC50,[1],"10 µM [falling, partial curve]"
O=C(CCNS(=O)(=O)c1cccc2nsnc12)Nc1ccc(F)cc1,AC50,[1],"0.0631 µM [falling, full curve, poor fit]"
Cc1csc2nc(-c3cccc(NC(=O)c4ccc(S(N)(=O)=O)cc4)c3)cn12,AC50,[1],"39.8 µM [falling, single point]"
COc1ccc(-c2nc3cc(NC(=O)COc4ccc(F)cc4)ccc3o2)cc1,AC50,[1],"3.16 µM [rising, full curve]"
COc1ccc(OC)c(CNC(=O)c2cc(=O)[nH]c3ccc(S(=O)(=O)N4CCCCC4C)cc23)c1 (centres undefined),AC50,[1],"7.94 µM [rising, partial curve]"
Cc1ccc2cccc(NC(=O)c3ccc(-c4ccc(Cl)cc4Cl)o3)c2n1,AC50,[1],"3.16 µM [rising, single point]"
Cc1ccc(S(=O)(=O)N(CC(=O)NCc2ccco2)Cc2ccc(F)cc2)cc1,AC50,[1],"10 µM [falling, partial curve]"
COc1ccccc1/C=C(\C#N)c1nc(-c2cc3ccccc3oc2=O)cs1,AC50,[1],"15.8 µM [falling, partial curve]"
CCC(=O)Nc1ccc(S(=O)(=O)NCc2cccn2Cc2cccc(C)c2)cc1,AC50,[1],"31.6 µM [falling, single point]"
CCc1ccccc1NC(=O)CSc1ncc2c(n1)-c1ccccc1N(C)S2(=O)=O,AC50,[2],"31.6 µM [rising, partial curve]"
same,AC50,[3],"25.1 µM [rising, partial curve]"
O=C(NCCC1=CCCCC1)c1ccc2c(c1)ncn2-c1cccc(Cl)c1,AC50,[1],"0.0316 µM [rising, full curve, poor fit]"
COc1cc(-c2nc3cnccn3c2Nc2ccccc2)ccc1O,AC50,[2],"31.6 µM [falling, single point]"
same,AC50,[3],"12.6 µM [falling, partial curve]"
Cc1ccc(C)c(N2CCN(CCCNc3ncnc4onc(-c5ccc(Cl)cc5)c34)CC2)c1,AC50,[1],"25.1 µM [falling, single point]"
Cc1ccc(NC(=O)[C@H](CSCc2ccccc2)N2Cc3ccccc3C2=O)cc1,AC50,[1],"3.98 µM [rising, partial curve]"
COc1ccccc1N1CCN(C(=O)CCNS(=O)(=O)c2ccc3c(c2)CCC(=O)N3)CC1,AC50,[1],"15.8 µM [falling, partial curve]"
Cc1ccc(C(=O)N2c3nc(-c4ccco4)nn3C3(CCCCC3)[C@@H]3CCCC[C@@H]32)cc1,AC50,[1],"7.94 µM [falling, partial curve]"
CC1CCN(S(=O)(=O)c2cccc(C(=O)NC3CCS(=O)(=O)C3)c2)CC1 (centres undefined),AC50,[1],"0.2 µM [falling, single point]"
COc1ccc(C)cc1NC(=O)CSc1nnc(COc2ccc(C)cc2)n1Cc1ccco1,AC50,[1],"12.6 µM [falling, partial curve]"
CCCCN(C)CCNC(=O)c1cc(-c2ccc(Cl)s2)nc2ccccc12,AC50,[1],"15.8 µM [falling, partial curve]"
COc1ccc(-c2cccc(NS(=O)(=O)c3ccc(NC(C)=O)cc3)c2)nn1,AC50,[1],"7.94 µM [falling, partial curve]"
O=C(O)CCN1C(=S)CSC1=S,AC50,[1],"2.51 µM [falling, partial curve]"

# Exported with bars between the fields: entries from further up.
smiles | measurement | setting | value
Cc1ccc2cccc(NC(=O)c3ccc(-c4ccc(Cl)cc4Cl)o3)c2n1 | AC50 | [1] | 3.16 µM [rising, single point]
Cc1ccc(S(=O)(=O)N(CC(=O)NCc2ccco2)Cc2ccc(F)cc2)cc1 | AC50 | [1] | 10 µM [falling, partial curve]
COc1ccccc1/C=C(\C#N)c1nc(-c2cc3ccccc3oc2=O)cs1 | AC50 | [1] | 15.8 µM [falling, partial curve]
CCC(=O)Nc1ccc(S(=O)(=O)NCc2cccn2Cc2cccc(C)c2)cc1 | AC50 | [1] | 31.6 µM [falling, single point]
CCc1ccccc1NC(=O)CSc1ncc2c(n1)-c1ccccc1N(C)S2(=O)=O | AC50 | [2] | 31.6 µM [rising, partial curve]
same | AC50 | [3] | 25.1 µM [rising, partial curve]
O=C(NCCC1=CCCCC1)c1ccc2c(c1)ncn2-c1cccc(Cl)c1 | AC50 | [1] | 0.0316 µM [rising, full curve, poor fit]
COc1cc(-c2nc3cnccn3c2Nc2ccccc2)ccc1O | AC50 | [2] | 31.6 µM [falling, single point]
same | AC50 | [3] | 12.6 µM [falling, partial curve]
Cc1ccc(C)c(N2CCN(CCCNc3ncnc4onc(-c5ccc(Cl)cc5)c34)CC2)c1 | AC50 | [1] | 25.1 µM [falling, single point]
Cc1ccc(NC(=O)[C@H](CSCc2ccccc2)N2Cc3ccccc3C2=O)cc1 | AC50 | [1] | 3.98 µM [rising, partial curve]
COc1ccccc1N1CCN(C(=O)CCNS(=O)(=O)c2ccc3c(c2)CCC(=O)N3)CC1 | AC50 | [1] | 15.8 µM [falling, partial curve]
Cc1ccc(C(=O)N2c3nc(-c4ccco4)nn3C3(CCCCC3)[C@@H]3CCCC[C@@H]32)cc1 | AC50 | [1] | 7.94 µM [falling, partial curve]
CC1CCN(S(=O)(=O)c2cccc(C(=O)NC3CCS(=O)(=O)C3)c2)CC1 (centres undefined) | AC50 | [1] | 0.2 µM [falling, single point]
